Assay results as given in patent publication US20090263416A1, “REDUCTION OF ANTIBIOTIC RESISTANCE IN BACTERIA” (priority 2006, published 2009).
At least one compound was matched to its structure with a doubt left.

Experiments:
Type in all cases: cell-based
[1] = tested on: S. senf; assay: Curing / plasmid loss; details: EB 200 μg/ml; data not shown
[2] = tested on: S. enteritidis (ATCC 13076); assay: Curing / plasmid loss; details: streptomycin-resistant; 24 hr exposure, replica plating
Description: (§1) Plasmid curing of antibiotic resistant bacteria was measured as described by Lakshmi and Thomas (1989) and NCCLS (2000). Briefly, aliquots (final inoculum concentration approximately 1×10^5 CFU/ml) of Salmonella isolates, E. coli isolates, and commercial isolates of E. coli XL1-blue and E. coli RK2 were added to tubes containing 1 ml aliquots of increasing concentrations of P-YCWP or YCWP (0, 0.01, 0.1, 0.3, 0.5, 1.0, 2.0, 3.0% w/v). A control culture was established by adding bacterial isolates as described above to aliquots of increasing concentrations of mannose. Known curing agents [ethidium bromide and iododeoxyuridine (IDU)] were used as positive controls, and to provide a percent curing activity. Tubes were incubated at 35° C. for 24 hr.
(§2) Following incubation, bacterial aliquots were plated on MacConkey agar plates (master plates). Antibiotic resistance after treatment was evaluated by replica plating on MacConkey agar containing predetermined concentrations of antimicrobial agents. Minimum curing concentration (MCC) was defined as the minimum concentration of compound able to “cure” bacteria, that is, remove antibiotic resistance, within a 24 hr period. […]
(§3) Plasmids were evaluated by microbial lysis and extraction of DNA (Mini-prep System, Bio-Rad Laboratories, Hercules, Calif.), followed by electrophoretic separation on 1% agarose gel (Bio-Rad). […]

[3] = tested on: E. coli ATCC 33766, plasmid pRK248clts; assay: Curing, broad range plasmid strain; details: tetracycline-resistant determinant; data not shown
Description: as §1
(§4) Following incubation, bacterial aliquots were plated on MacConkey agar plates (master plates). Antibiotic resistance after treatment was evaluated by replica plating on MacConkey agar containing predetermined concentrations of antimicrobial agents. Minimum curing concentration (MCC) was defined as the minimum concentration of compound able to “cure” bacteria, that is, remove antibiotic resistance, within a 24 hr period. A sample was considered to contain bacteria resistant to an antibiotic when greater than 1% of a sample plated on a master plate of MacConkey agar grew on an antibiotic-containing replica plate.

[4] = tested on: E. coli of swine origin; assay: Curing of antibiotic resistance (replica plating); details: EB or IDU treatment
Description: as §1, §4

[5] = tested on: E. coli XL1-blue; assay: Curing / plasmid loss, narrow range plasmid strain; details: FIG. 4
Description: as §1, §2, §3

[6] = tested on: Salmonella montevideo; assay: Curing / plasmid loss; details: EB 200 μg/ml; data not shown
[7] = tested on: S. schwarzengrund; assay: Curing / plasmid loss; details: EB 200 μg/ml; data not shown

In the case of `CC[n+]1c(-c2ccccc2)c2cc(N)ccc2c2ccc(N)cc21` [EB, ethidium bromide], the curing [1] is reported as “seen only with EB”, the curing [2] is reported as “Neither EB nor IDU showed any curing capacity” and the “curing of the organism carrying the broad range plasmid” value [3] is reported as “Neither yeast cell wall preparations nor traditional curing agents (EB, IDU) cured the organism”. The curing for neomycin [4] was “no curing”, the curing for tetracycline [4] was “no curing” and the curing [5] was “curing was seen”. The curing [6] was “seen only with EB” and the curing [7] was “seen only with EB”.
